# Measurements from patent US20250268898A1, “METHODS OF TREATING SYNOVIAL SARCOMA PATHOGENESIS BY SUMO2 INHIBITION” (Sanford Burnham Prebys Medical Discovery Institute, priority 2024, published 2025).
# System: HS-SY-II and SYO1 cells
# Assay: Total RNA sequencing, Compound 1 vs DMSO
# Format: cell-based, human
# Experimental: To comprehensively interrogate the transcriptomic changes occurring in synovial sarcoma cells, HS-SY-II and SYO1 cells were cultured in media containing DMSO and media containing Compound 1 and subjected to total RNA sequencing. HS-SY-II and SYO1 cells were contacted with either Compound 1 at concentrations of between about 25 nM and about 100 nM, or DMSO for 48 hours. The cell suspensions were pelleted, and RNA was extracted with varying concentrations. TRIzol Reagent was used to extract total RNA from SYO1, and HS-SY-II cell pellets, and strands were synthesized using Protoscript II (NEB) with poly A selection. qPCR was performed using TaqMan Gene Expression Master Mix and FAM probes for SUMO2, HPRT, and GAPDH. Paired-end (2×100 bp) sequencing was performed on the NovaSeq 6000 Sequencing System. Data Processing and QC was completed using FastQC and QC summarization was done by MultiQC. Mapping to human genome hg38 v84 was done using STAR sequence aligner, and expression was estimated using RSEM. […]
# The RNA-seq reads were analyzed for each sample to the human reference genome GRCh38 using STAR aligner. […] For target genes of interest in both HS-SY-II and SYO1, a total of 960 differentially expressed target genes of interest (DEGs) were analyzed using […] (FIG. 4A).
# Upregulation of target genes of interest activated by the chimeric SS18-SSX fusion protein in DMSO media and in media containing Compound 1 were mapped with size and […] (FDR) quantified, based on […] (NES) values (FIG. 4D). Expression of various target genes of interest, upregulation, and downregulation by SS18-SSX fusion genomes, were measured in contact with varying concentrations of Compound 1 (FIG. 4E). […] Enrichment scores were calculated using gene set enrichment analysis for HS-SY-II cells in contact with DMSO and varying concentrations of Compound 1 for target genes of interest (FIG. 4H). […]
# [1] = additional screens, threshold |fold change|>2 and adjusted p-value<0.01
structure (smiles),measurement,setting,value
Cc1sc(C(=O)c2cncnc2N[C@@H]2C[C@H](COS(N)(=O)=O)[C@@H](O)C2)cc1[C@@H]1NCCc2ccc(Cl)cc21 [Compound 1],differentially expressed target genes of interest (DEGs),"HS-SY-II and SYO1, Compound 1 about 25 nM to about 100 nM or DMSO, 48 hours",960
same,DEGs upregulated,[1],908
same,total DEGs detected,[1],1100
